# Data published in the supplement of paper PMC8728848.
# The list shows a part of the results.
# B1: Nc3LysM-2 (protein)
# chain: AHVLQARQSVSCDFATAANTGDTCASFAAAWGITEAAFAKLNPGVSCPGNLIAGSEYCVIGTVSTGAPTTTKAATTSTTPPTTTTTTKATTLSTSTTSVSPTGPSPQMPSITSTCNKFYQVQSGDGCWSIEQAQGVSASDFMAWNKAVDAQCDNLWLGYYVCVGVKGGSSPPPTTTTKPASSSAPTPQMPNTVSNCKKFHKVVSGDGCWAIEQAAGISASDFAKWNPYVDAACDNLWLGYYVCIGV
# Experiments:
# Test in all cases: glycan array binding signal (z-score within array); higher = stronger binding
# Conditions in all cases: glycan notation: IUPAC condensed, linker removed
# Gal6S(b1-4)Glc6S = molecular target: Gal6S(b1-4)Glc6S
# Procedure, shortened: (§1)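 Glycan array data came from 3228 arrays in the Consortium for Functional Glycomics database, and only arrays with an available protein sequence were kept. Glycan names were put into IUPAC-condensed notation, and columns mapping to the same glycan were averaged. The binding signal is a within-array Z-score, averaged across arrays of one protein sequence run at different concentrations or buffers and across linkers. A negative Z-score can be read as non-binding.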
# Gal6S(b1-4)GlcNAc = molecular target: Gal6S(b1-4)GlcNAc
# Procedure, shortened: as §1
# Gal6S(b1-4)GlcNAc6S = molecular target: Gal6S(b1-4)GlcNAc6S
# Procedure, shortened: as §1
# GalNAc(a1-3)Gal = molecular target: GalNAc(a1-3)Gal
# Procedure, shortened: as §1
# GalNAc(a1-3)GalNAc = molecular target: GalNAc(a1-3)GalNAc
# Procedure, shortened: as §1
# [1] = molecular target: GalNAc(a1-3)GalNAc(b1-3)Gal(a1-4)Gal(b1-4)Glc
# Procedure, shortened: as §1
# [2] = molecular target: GalNAc(a1-3)GalNAc(b1-3)Gal(a1-4)Gal(b1-4)GlcNAc
# Procedure, shortened: as §1
# GalNAc(b1-3)Gal = molecular target: GalNAc(b1-3)Gal
# Procedure, shortened: as §1
# [3] = molecular target: GalNAc(b1-3)Gal(a1-4)Gal(b1-4)GlcNAc
# Procedure, shortened: as §1
# [4] = molecular target: GalNAc(b1-3)Gal(a1-4)Gal(b1-4)GlcNAc(b1-3)Gal(b1-4)Glc
# Procedure, shortened: as §1
# [5] = molecular target: GalNAc(b1-3)Gal(a1-6)Gal(b1-4)Glc
# Procedure, shortened: as §1
# GalNAc(b1-3)GalNAc = molecular target: GalNAc(b1-3)GalNAc
# Procedure, shortened: as §1
# GalNAc(b1-3)GlcNAc = molecular target: GalNAc(b1-3)GlcNAc
# Procedure, shortened: as §1
# GalNAc(b1-4)Gal(b1-4)Glc = molecular target: GalNAc(b1-4)Gal(b1-4)Glc
# Procedure, shortened: as §1
# GalNAc(b1-4)GlcNAc = molecular target: GalNAc(b1-4)GlcNAc
# Procedure, shortened: as §1
# [6] = molecular target: GalNAc(b1-4)GlcNAc(b1-2)Man
# Procedure, shortened: as §1
# [7] = molecular target: GalNAc(b1-4)GlcNAc(b1-2)Man(a1-3)[GalNAc(b1-4)GlcNAc(b1-2)Man(a1-6)]Man(b1-4)GlcNAc(b1-4)GlcNAc
# Procedure, shortened: as §1
# [8] = molecular target: GalNAc(b1-4)GlcNAc(b1-3)GalNAc(b1-4)GlcNAc
# Procedure, shortened: as §1
# GalNAc(b1-4)GlcNAc6S = molecular target: GalNAc(b1-4)GlcNAc6S
# Procedure, shortened: as §1
# GalNAc(b1-6)GalNAc = molecular target: GalNAc(b1-6)GalNAc
# Procedure, shortened: as §1
# GalNAc3S(b1-4)GlcNAc = molecular target: GalNAc3S(b1-4)GlcNAc
# Procedure, shortened: as §1
# GalNAc3S(b1-4)GlcNAc3S = molecular target: GalNAc3S(b1-4)GlcNAc3S
# Procedure, shortened: as §1
# [9] = molecular target: GalNAc3S(b1-4)[Fuc(a1-3)]GlcNAc
# Procedure, shortened: as §1
# GalNAc4S6S(b1-4)GlcNAc = molecular target: GalNAc4S6S(b1-4)GlcNAc
# Procedure, shortened: as §1
# GalNAc6S(b1-4)GlcNAc = molecular target: GalNAc6S(b1-4)GlcNAc
# Procedure, shortened: as §1
# Glc(a1-4)Glc = molecular target: Glc(a1-4)Glc
# Procedure, shortened: as §1
# [10] = molecular target: Glc(a1-4)Glc(a1-4)Glc(a1-4)Glc
# Procedure, shortened: as §1
# Glc(a1-6)Glc(a1-6)Glc = molecular target: Glc(a1-6)Glc(a1-6)Glc
# Procedure, shortened: as §1
# [11] = molecular target: Glc(a1-6)Glc(a1-6)Glc(a1-6)Glc
# Procedure, shortened: as §1
# Glc(b1-4)Glc = molecular target: Glc(b1-4)Glc
# Procedure, shortened: as §1
# Glc(b1-6)Glc = molecular target: Glc(b1-6)Glc
# Procedure, shortened: as §1
# GlcA(b1-3)Gal = molecular target: GlcA(b1-3)Gal
# Procedure, shortened: as §1
# GlcA(b1-3)GlcNAc = molecular target: GlcA(b1-3)GlcNAc
# Procedure, shortened: as §1
# GlcA(b1-6)Gal = molecular target: GlcA(b1-6)Gal
# Procedure, shortened: as §1
# [12] = molecular target: GlcA3S(b1-3)Gal(b1-4)GlcNAc(b1-2)Man
# Procedure, shortened: as §1
# [13] = molecular target: GlcA3S(b1-3)Gal(b1-4)GlcNAc(b1-3)Gal(b1-4)Glc
# Procedure, shortened: as §1
# [14] = molecular target: GlcNAc(a1-3)Gal(b1-4)GlcNAc
# Procedure, shortened: as §1
binder,measurement,setting,value
B1,glycan array binding signal (z-score),Gal6S(b1-4)Glc6S,1.18
same,glycan array binding signal (z-score),Gal6S(b1-4)GlcNAc,-0.694
same,glycan array binding signal (z-score),Gal6S(b1-4)GlcNAc6S,0.629
same,glycan array binding signal (z-score),GalNAc(a1-3)Gal,-0.057
same,glycan array binding signal (z-score),GalNAc(a1-3)GalNAc,0.704
same,glycan array binding signal (z-score),[1],0.034
same,glycan array binding signal (z-score),[2],0.024
same,glycan array binding signal (z-score),GalNAc(b1-3)Gal,-0.872
same,glycan array binding signal (z-score),[3],1.51
same,glycan array binding signal (z-score),[4],0.146
same,glycan array binding signal (z-score),[5],-0.246
same,glycan array binding signal (z-score),GalNAc(b1-3)GalNAc,-0.302
same,glycan array binding signal (z-score),GalNAc(b1-3)GlcNAc,-1.58
same,glycan array binding signal (z-score),GalNAc(b1-4)Gal(b1-4)Glc,-0.34
same,glycan array binding signal (z-score),GalNAc(b1-4)GlcNAc,-1.01
same,glycan array binding signal (z-score),[6],-0.338
same,glycan array binding signal (z-score),[7],1.88
same,glycan array binding signal (z-score),[8],0.67
same,glycan array binding signal (z-score),GalNAc(b1-4)GlcNAc6S,-1.02
same,glycan array binding signal (z-score),GalNAc(b1-6)GalNAc,0.877
same,glycan array binding signal (z-score),GalNAc3S(b1-4)GlcNAc,0.13
same,glycan array binding signal (z-score),GalNAc3S(b1-4)GlcNAc3S,1.45
same,glycan array binding signal (z-score),[9],2.05
same,glycan array binding signal (z-score),GalNAc4S6S(b1-4)GlcNAc,-0.872
same,glycan array binding signal (z-score),GalNAc6S(b1-4)GlcNAc,0.893
same,glycan array binding signal (z-score),Glc(a1-4)Glc,-0.04
same,glycan array binding signal (z-score),[10],0.646
same,glycan array binding signal (z-score),Glc(a1-6)Glc(a1-6)Glc,-0.188
same,glycan array binding signal (z-score),[11],-0.344
same,glycan array binding signal (z-score),Glc(b1-4)Glc,-1.11
same,glycan array binding signal (z-score),Glc(b1-6)Glc,-1.2
same,glycan array binding signal (z-score),GlcA(b1-3)Gal,0.063
same,glycan array binding signal (z-score),GlcA(b1-3)GlcNAc,-0.827
same,glycan array binding signal (z-score),GlcA(b1-6)Gal,2.36
same,glycan array binding signal (z-score),[12],0.714
same,glycan array binding signal (z-score),[13],-0.097
same,glycan array binding signal (z-score),[14],-0.659

# 2 entries from above in another layout:
binder | measurement | setting | value
B1 | glycan array binding signal (z-score) | GalNAc(b1-3)GlcNAc | -1.58
same | glycan array binding signal (z-score) | GalNAc(b1-4)Gal(b1-4)Glc | -0.34
